Measurements published in patent publication US20230340037A1, “INHIBITORS OF ?-SYNUCLEIN AGGREGATION AND USES THEREOF” (U[…] DE BARCELONA, priority 2020, published 2023).
“Also recorded” adds a separate entry of the source. At least one peptide structure holds a part that was inferred or is arguable (an end, a ring closure or a residue).

Experiments:
[1] = test system: SH-SY5Y neuroblastoma cells; assay: Toxic a-synuclein oligomers interaction with cells; format: cell-based, human; details: 10 μM toxic oligomer pretreated with equimolar peptide
a-synuclein = biological target: T1, a-synuclein (Homo sapiens, UniProt P37840); assay: a-synuclein aggregation kinetics assay (thioflavin-T); format: biochemical; details: 70 μM a-synuclein, Th-T, equimolar and substoichiometric peptide concentrations, 32 h; listed as PSMa3
T1 construct: made in house; host or cells: Escherichia coli BL21 (DE3), pET21a
Procedure: a-synuclein aggregation can be monitored as described in Pujols et al., 2018. Specifically, inhibition of in vitro a-synuclein aggregation at equimolar concentrations of a-synuclein and the tested inhibitor can be determined as follows:
A 96 well microtiter plate is prepared to contain, in each well, a Teflon polyball (3.175 mm in diameter, e.g., from Polysciences Europe GmbH, Eppelheim, Germany) and 150 μl of PBS containing 70 μM a-synuclein (prepared from diluting the 0.22 μm-filtered 210 μM a-synuclein solution described in example 1), 40 μM thioflavin-T and 70 μM of the tested inhibitor. 150 μl/well of PBS containing 70 μM a-synuclein and 40 μM thioflavin-T is used as a control. […] Every two hours, the fluorescence intensity is measured (e.g. using a Victor3.0 Multilabel Reader, PerkinElmer Waltham, MA, USA) by exciting the mixtures at 430-450 nm and measuring the emission intensity at 480-510 nm. […]
Parallel wells (e.g. triplicates) are prepared for each tested inhibitor and the control. For the measurement of each time interval, the measured fluorescence intensity of the respective parallel wells is averaged and then normalized to the maximum fluorescence of the control (a-synuclein without inhibitor) and fitted to the Finke-Watzky curve, accounting for fibril elongation and secondary nucleation. […]

[2] = test system: SH-SY5Y neuroblastoma cells; assay: Toxic a-synuclein oligomer induced increase of intracellular reactive oxygen species; format: cell-based, human; details: coincubated with a-synuclein toxic oligomers, 10 μM
Procedure: A stock solution of 80 μM toxic a-synuclein oligomer (prepared as described in example 3) and a stock solution of 80 μM toxic a-synuclein oligomer and 80 μM of the tested inhibitor are prepared in PBS and incubated for 15 min at 20° C. before being added to cell-containing wells as described below.
Human SH-SY5Y neuroblastoma cells (ATCC, #CRL-2266) cultured in growth medium (Eagle's Minimum Essential Medium (EMEM) supplemented with 10% […] (FBS)) are seeded onto a glass slide mounted with 8 removable wells (e.g., Nunc Lab-Tek II Chamber Slide System, #154941) with 0.5 mL cells/well at 0.5×10^6 cells/mL in growth medium for 24 h at 37° C. and 5% C02. […]
Then, a fluorogenic reagent for oxidative stress detection in live cells (e.g., a CellRox® reagent from Invitrogen, Carlsbad, USA, such as CellRox® Green) is added (final concentration of CellRox® Green 5 μM). […] The intracellular fluorescence of the treated SH-SY5Y cells is then analyzed with a confocal microscope (e.g. a Leica TCS SP5, Leica Microsystems, Wetzlar, Germany, with a HCX PL APO 63×1.4 oil immersion objective) equipped with a camera, using wave lengths for excitation and detection which are suitable for the used oxidative stress detection agent (for CellRox® Green: excitation at 488 nm and detection at 515-560 nm). […] ROS fluorescence are calculated from mean of 100 cells.

CSCC[C@H](N)C(=O)N[C@@H](CCC(=O)O)C(=O)N[C@@H](Cc1ccccc1)C(=O)N[C@H](C(=O)N[C@@H](C)C(=O)N[C@@H](CCCCN)C(=O)N[C@@H](CC(C)C)C(=O)N[C@@H](Cc1ccccc1)C(=O)N[C@@H](CCCCN)C(=O)N[C@@H](Cc1ccccc1)C(=O)N[C@@H](Cc1ccccc1)C(=O)N[C@@H](CCCCN)C(=O)N[C@@H](CC(=O)O)C(=O)N[C@@H](CC(C)C)C(=O)N[C@@H](CC(C)C)C(=O)NCC(=O)N[C@@H](CCCCN)C(=O)N[C@@H](Cc1ccccc1)C(=O)N[C@@H](CC(C)C)C(=O)NCC(=O)N[C@@H](CC(N)=O)C(=O)N[C@@H](CC(N)=O)C(=O)O)C(C)C [PSMα3]
interaction of a-synuclein toxic oligomers with cells [1]: reduces the interaction
inhibition of a-synuclein aggregation (a-synuclein): inhibit a-synuclein aggregation; also recorded: substoichiometry inhibition
generation of reactive oxygen species [2]: reduce the generation of reactive oxygen species
